Measurements reported in patent publication US4456604A, “1-(3-Halo-2-pyridinyl) piperazine” (Merck & Co., Inc., priority 1982, dated 1984).

System: α2-adrenergic receptor
Experiment: α2-adrenergic receptor binding ([3H] clonidine binding site, calf cerebral cortex)
Conditions: Kiα1/Kiα2
Protocol: The α1 - and α2 -adrenergic receptor binding was determined for 1-(3-halo-2-pyridinyl)piperazines and a number of other structurally related compounds shown in Table I.
Binding to the α2 -adrenergic receptor was determined by the method of Lyon and Randall, Life Sciences, 26, 1121 (1980) and also is expressed in Table I as Ki representing the affinity of each compound for the [^3 H] clonidine binding site in calf cerebral cortex.

SMILES: Clc1cncc(N2CCNCC2)n1 [Compound 9]
- Ratio α1/α2: 19

SMILES: Clc1cccc(N2CCNCC2)n1 [Compound 6]
- Ratio α1/α2: 26

SMILES: c1ccc(N2CCNCC2)nc1 [Compound 7]
- Ratio α1/α2: 65

SMILES: Clc1cccnc1N1CCNCC1 [Compound 2, 1-(3-chloro-2-pyridinyl)piperazine]
- Ratio α1/α2: 228

SMILES: Brc1cccnc1N1CCNCC1 [Compound 3, 1-(3-bromo-2-pyridinyl)piperazine]
- Ratio α1/α2: 135

SMILES: CN1CCN(c2ncccc2Br)CC1 [Compound 5]
- Ratio α1/α2: 55

SMILES: Clc1nccnc1N1CCNCC1 [Compound 10]
- Ratio α1/α2: 163

SMILES: Ic1cccnc1N1CCNCC1 [Compound 4]
- Ratio α1/α2: 38

SMILES: Fc1cccnc1N1CCNCC1 [Compound 1, 1-(3-fluoro-2-pyridinyl)piperazine]
- Ratio α1/α2: 277
